# PubChem BioAssay AID1224826 | NIAID – 2016
# Screen: 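Genes that change LPS-induced Tnf promoter activity in mouse macrophages when knocked down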 (primary screen)
# System: RAW264.7 G9 macrophages from mouse bearing reporters for p65 (GFP) and the Tnf promoter (mCherry)
# Knock-down reagent: siRNA pool against mouse genes, 100 nM
# Duration: 16 h of LPS stimulation, after 2 days of siRNA transfection
# Conditions: bacterial lipopolysaccharide (Salmonella minnesota R595), 10 ng/ml
# Measurement: 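Imaged Tnf reporter mCherry in nuclei, minus background, normalised per plate to the median and expressed as robust z-scores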
# Reading the numbers: Tnf reporter robust z-score: higher = stronger Tnf promoter reporter signal after LPS; Tnf reporter intensity: higher = stronger Tnf promoter reporter signal
# Call rule: 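a well counts as active at a score of -1.3 or below (Tlr4 knock-down control median) or above 3 (raised signal); controls and wells holding fewer than 50 cells are excluded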
# Calls: active = Tnf reporter clearly lowered or raised; inactive = no clear change in Tnf reporter
# The deposit covers about 17,000 reagents; this is a random part of them. About 1,110 of them (6.6%) count as active. 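Active means lowered or raised reporter signal; replicate intensities are raw and not normalised per plate.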 A number with no mark means an inactive call. No sequences are given here.
Target gene,Tnf reporter robust z-score,fewer than 50 cells in well,"Tnf reporter intensity, replicate 1","Tnf reporter intensity, replicate 2"
Gpr155 (GeneID 68526),0.28,enough cells in well,201,384
F2rl2 (GeneID 14064),-0.03,enough cells in well,173,362
Mphosph10 (GeneID 67973),2.3,enough cells in well,297,247
Or4d5 (GeneID 258601),0.49,enough cells in well,129,195
Chaf1b (GeneID 110749),-0.37,enough cells in well,180,274
Clec1a (GeneID 243653),-0.65,enough cells in well,121,126
Nxph2 (GeneID 18232),-1.3 (active),enough cells in well,113,78.8
Cpa6 (GeneID 329093),1.5,enough cells in well,260,213
Speer2 (GeneID 224318),0.93,enough cells in well,210,122
Defb5 (GeneID 81007),1.29,enough cells in well,251,247
Rap2b (GeneID 74012),-1,enough cells in well,231,118
Ly6e (GeneID 17069),-0.9,enough cells in well,129,105
Fam149b (GeneID 105428),-1.32 (active),enough cells in well,77.2,104
Cd320 (GeneID 54219),-0.46,enough cells in well,180,42.9
Zfp952 (GeneID 240067),-0.71,enough cells in well,181,80.5
Grin2b (GeneID 14812),-0.25,enough cells in well,247,204
Kcnu1 (GeneID 16532),-0.3,enough cells in well,129,148
Or5p70 (GeneID 258361),,fewer than 50 cells per well; well left out of calls,47.3,78
Tbc1d15 (GeneID 66687),-0.21,enough cells in well,137,62.6

Ordered by “Tnf reporter intensity, replicate 2” (low to high): some entries from above
Target gene,Tnf reporter robust z-score,fewer than 50 cells in well,"Tnf reporter intensity, replicate 1","Tnf reporter intensity, replicate 2"
Rap2b (GeneID 74012),-1,enough cells in well,231,118
Speer2 (GeneID 224318),0.93,enough cells in well,210,122
Defb5 (GeneID 81007),1.29,enough cells in well,251,247

Further records follow:
Target gene,Tnf reporter robust z-score,fewer than 50 cells in well,"Tnf reporter intensity, replicate 1","Tnf reporter intensity, replicate 2"
Or6f2 (GeneID 258511),,fewer than 50 cells per well; well left out of calls,58.6,79.4
Ganab (GeneID 14376),-1.04,enough cells in well,139,103
Usp45 (GeneID 77593),1.38,enough cells in well,300,53.5
Mgat4d (GeneID 67555),-0.25,enough cells in well,199,101
Cd99 (GeneID 673094),,fewer than 50 cells per well; well left out of calls,126,49.8
Eif2s3y (GeneID 26908),-0.18,enough cells in well,187,101
Amd1 (GeneID 11702),-1.21,enough cells in well,75.5,156
Sec23b (GeneID 27054),3.67 (active),enough cells in well,207,247
Pycard (GeneID 66824),0.05,enough cells in well,139,176
Rom1 (GeneID 19881),-1.41 (active),enough cells in well,165,44
Pcm1 (GeneID 18536),0.54,enough cells in well,297,205
Exosc8 (GeneID 69639),0.96,enough cells in well,282,212
Spag6l (GeneID 50525),,fewer than 50 cells per well; well left out of calls,109,134
Agpat1 (GeneID 55979),0.61,enough cells in well,222,182
Ptov1 (GeneID 84113),,fewer than 50 cells per well; well left out of calls,63.7,58.7
Or9g8 (GeneID 258562),1.47,enough cells in well,296,212
Mecr (GeneID 26922),-0.71,enough cells in well,190,134
Uso1 (GeneID 56041),-1.03,enough cells in well,79.5,56.6
Slc66a2 (GeneID 66943),,fewer than 50 cells per well; well left out of calls,90.5,8.5
Adm2 (GeneID 223780),1.28,enough cells in well,360,205
Kifc2 (GeneID 16581),-0.18,enough cells in well,169,182
